Earlier results in US20230340555A1, “PRODUCTION OF GLYCOSYLATED CANNABINOIDS” (WILLOW BIOSCIENCES, INC., priority 2020, published 2023).

Details: cited from earlier work

Structure (SMILES): C=C(C)[C@@H]1CCC(C)=C[C@H]1c1c(O)cc(CCCCC)cc1O [CBD, cannabidiol]
- solubility in water: less than 0.1 mg/ml
